Source: paper PMC11602137
Construct, isoform or probe ends are uncertain for at least one entry. The comparison behind a weaker result is the experiment's own reference, which may not be listed here. At least one verdict rests on a figure or table, not on a statement of the authors.

By UniProt entry, the sequences of proteins in these tests, tags left out.
UniProt Q9UL03, whole entry: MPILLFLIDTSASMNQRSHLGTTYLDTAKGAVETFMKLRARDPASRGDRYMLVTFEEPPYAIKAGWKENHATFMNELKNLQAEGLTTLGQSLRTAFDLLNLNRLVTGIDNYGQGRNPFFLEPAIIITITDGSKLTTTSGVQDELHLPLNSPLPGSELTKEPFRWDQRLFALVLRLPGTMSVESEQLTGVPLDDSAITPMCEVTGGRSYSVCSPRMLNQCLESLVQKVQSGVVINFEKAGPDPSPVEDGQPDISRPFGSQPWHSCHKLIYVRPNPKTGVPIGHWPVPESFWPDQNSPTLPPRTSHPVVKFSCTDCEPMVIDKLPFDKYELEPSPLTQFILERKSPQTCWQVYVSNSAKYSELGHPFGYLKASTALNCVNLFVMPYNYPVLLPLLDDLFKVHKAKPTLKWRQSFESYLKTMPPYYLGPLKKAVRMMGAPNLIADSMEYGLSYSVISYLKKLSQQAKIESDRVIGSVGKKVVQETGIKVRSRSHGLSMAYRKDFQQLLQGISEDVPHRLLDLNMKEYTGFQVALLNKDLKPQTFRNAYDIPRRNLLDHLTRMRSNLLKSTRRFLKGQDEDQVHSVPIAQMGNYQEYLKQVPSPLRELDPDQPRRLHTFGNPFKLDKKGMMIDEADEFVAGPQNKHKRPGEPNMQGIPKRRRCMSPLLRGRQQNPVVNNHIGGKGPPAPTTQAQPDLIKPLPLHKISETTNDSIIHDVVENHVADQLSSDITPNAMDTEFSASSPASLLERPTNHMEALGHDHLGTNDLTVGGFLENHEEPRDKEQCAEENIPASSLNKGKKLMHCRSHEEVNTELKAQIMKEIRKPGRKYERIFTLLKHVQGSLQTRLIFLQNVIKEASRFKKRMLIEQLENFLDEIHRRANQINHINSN

Target: INTS6 (UniProt Q9UL03)
Assay: EMSA
Conditions: 5 mM Mg2+, length-dependent ssDNA binding; EMSA: 25 mM Tris-Cl pH 7.5, 1 mM DTT, 5 mM MgCl2, 100 mM NaCl, 20 min at 37 C; protein 22-167 nM, nucleic acid 10 nM; 7.5% native PAGE, 0.5x TBE, 4 C; recombinant protein; protein details: His6-MBP-Asn10-TEV (N-terminal); label: 5'-Cy3; single-stranded DNA

GTGCCTTGCTAGGACATCTTT [21-mer ssDNA (pR630)]
binding result: binds more weakly
